Assay results: the M2OR odorant receptor database
The list shows a part of the results, in another mix than the full data. Calls are pooled over several reports, among them a noisy single-well screen.

Tests used:
Settings in all cases: stereoisomer not certain
[1] = biological target: T1, UniProt Q8VGJ3
T1 sequence (whole entry): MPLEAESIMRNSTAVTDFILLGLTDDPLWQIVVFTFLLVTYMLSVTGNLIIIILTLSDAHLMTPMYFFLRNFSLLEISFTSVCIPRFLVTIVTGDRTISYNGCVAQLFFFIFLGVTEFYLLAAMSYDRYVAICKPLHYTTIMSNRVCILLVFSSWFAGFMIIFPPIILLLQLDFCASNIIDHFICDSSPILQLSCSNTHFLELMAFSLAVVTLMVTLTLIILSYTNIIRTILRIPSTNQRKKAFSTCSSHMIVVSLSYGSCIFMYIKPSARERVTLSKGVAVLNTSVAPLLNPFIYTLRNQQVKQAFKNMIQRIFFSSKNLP
Method in brief: (§1)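 Whether a receptor–molecule pair is responsive (active) rests on the original authors' judgment that its measured signal was statistically different from baseline. Pairs without that judgment are non-responsive (inactive). Sources used varied assay methods, commonly transient luciferase assays in mammalian cell lines.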

[2] = biological target: T2, UniProt Q8VGL0
T2 sequence (whole entry): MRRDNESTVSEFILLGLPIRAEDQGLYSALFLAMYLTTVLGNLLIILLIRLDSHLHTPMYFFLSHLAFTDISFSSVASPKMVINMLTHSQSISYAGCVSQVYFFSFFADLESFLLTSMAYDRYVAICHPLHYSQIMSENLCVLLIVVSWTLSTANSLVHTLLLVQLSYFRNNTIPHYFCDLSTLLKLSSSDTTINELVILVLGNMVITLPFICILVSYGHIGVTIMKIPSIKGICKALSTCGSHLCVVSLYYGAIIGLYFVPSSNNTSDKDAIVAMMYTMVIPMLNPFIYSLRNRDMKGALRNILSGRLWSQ
Method in brief: as §1

[3] = biological target: T3, UniProt Q8VGU3
T3 sequence (whole entry): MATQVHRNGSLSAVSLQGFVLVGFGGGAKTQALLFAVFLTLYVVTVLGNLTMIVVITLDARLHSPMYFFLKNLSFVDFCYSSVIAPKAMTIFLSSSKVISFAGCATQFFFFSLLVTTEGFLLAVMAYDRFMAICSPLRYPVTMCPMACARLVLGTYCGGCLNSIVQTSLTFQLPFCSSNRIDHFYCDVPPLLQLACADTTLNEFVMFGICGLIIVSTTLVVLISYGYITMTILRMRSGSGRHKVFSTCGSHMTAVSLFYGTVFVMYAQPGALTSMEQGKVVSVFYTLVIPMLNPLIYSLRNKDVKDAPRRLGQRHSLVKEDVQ
Method in brief: as §1

[4] = biological target: T4, UniProt Q8VGV7
T4 sequence (whole entry): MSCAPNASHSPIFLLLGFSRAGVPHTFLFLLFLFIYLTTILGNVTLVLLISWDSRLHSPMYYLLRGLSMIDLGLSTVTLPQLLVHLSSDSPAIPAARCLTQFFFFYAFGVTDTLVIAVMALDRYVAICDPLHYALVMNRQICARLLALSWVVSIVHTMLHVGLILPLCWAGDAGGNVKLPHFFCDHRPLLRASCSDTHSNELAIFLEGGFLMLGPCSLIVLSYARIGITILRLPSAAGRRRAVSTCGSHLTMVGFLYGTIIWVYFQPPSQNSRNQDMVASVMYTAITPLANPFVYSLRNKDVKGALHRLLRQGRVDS
Method in brief: as §1

[5] = biological target: T5, UniProt Q8VGX3
T5 sequence (whole entry): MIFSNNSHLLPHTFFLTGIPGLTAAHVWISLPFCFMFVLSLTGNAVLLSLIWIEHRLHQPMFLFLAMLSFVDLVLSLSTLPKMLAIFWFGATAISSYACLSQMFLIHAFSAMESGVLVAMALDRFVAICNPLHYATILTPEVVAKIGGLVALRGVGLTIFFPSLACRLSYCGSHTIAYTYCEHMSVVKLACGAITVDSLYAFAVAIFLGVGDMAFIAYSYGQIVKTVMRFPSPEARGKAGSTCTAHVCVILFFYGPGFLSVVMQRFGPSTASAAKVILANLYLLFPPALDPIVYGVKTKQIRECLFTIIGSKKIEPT
Method in brief: as §1

[6] = biological target: T6, UniProt Q8VGX5
T6 sequence (whole entry): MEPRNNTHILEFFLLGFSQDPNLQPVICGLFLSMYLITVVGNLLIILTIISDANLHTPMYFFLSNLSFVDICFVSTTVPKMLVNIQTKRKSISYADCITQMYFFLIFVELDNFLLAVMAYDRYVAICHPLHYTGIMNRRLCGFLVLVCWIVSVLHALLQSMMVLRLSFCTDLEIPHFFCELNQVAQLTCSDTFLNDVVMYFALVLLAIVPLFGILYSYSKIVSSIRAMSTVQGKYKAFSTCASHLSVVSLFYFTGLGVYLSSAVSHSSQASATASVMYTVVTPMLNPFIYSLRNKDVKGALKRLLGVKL
Method in brief: as §1

[7] = biological target: T7, UniProt Q8VGZ2
T7 sequence (whole entry): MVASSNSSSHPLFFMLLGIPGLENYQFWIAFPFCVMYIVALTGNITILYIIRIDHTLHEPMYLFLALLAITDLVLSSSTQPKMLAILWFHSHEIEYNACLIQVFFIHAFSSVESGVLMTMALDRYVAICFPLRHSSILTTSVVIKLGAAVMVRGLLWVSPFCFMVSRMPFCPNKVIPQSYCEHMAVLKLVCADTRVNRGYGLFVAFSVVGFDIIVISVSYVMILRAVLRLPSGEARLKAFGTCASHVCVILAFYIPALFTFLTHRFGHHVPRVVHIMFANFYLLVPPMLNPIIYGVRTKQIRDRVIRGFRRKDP
Method in brief: as §1

[8] = biological target: T8, UniProt Q8VGW5
T8 sequence (whole entry): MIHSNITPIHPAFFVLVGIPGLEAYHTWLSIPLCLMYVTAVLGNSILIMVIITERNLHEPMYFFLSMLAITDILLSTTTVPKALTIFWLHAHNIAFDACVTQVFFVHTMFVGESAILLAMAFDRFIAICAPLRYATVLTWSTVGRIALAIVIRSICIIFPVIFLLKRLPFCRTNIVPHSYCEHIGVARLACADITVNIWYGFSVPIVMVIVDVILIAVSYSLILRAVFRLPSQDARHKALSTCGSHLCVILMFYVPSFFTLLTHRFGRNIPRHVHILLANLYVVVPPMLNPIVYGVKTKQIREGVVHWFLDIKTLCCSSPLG
Method in brief: as §1
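Note: active if original authors judged signal statistically different from baseline.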

CC(=O)OC1CC2CCC1(C)C2(C)C (stereo not given)
odorant receptor agonist call [1]: inactive | odorant receptor agonist call [2]: inactive | odorant receptor agonist call [3]: inactive | odorant receptor agonist call [4]: inactive | odorant receptor agonist call [5]: inactive | odorant receptor agonist call [6]: inactive | odorant receptor agonist call [7]: inactive

C=CCc1ccc(O)c(OC)c1
odorant receptor agonist call [1]: inactive | odorant receptor agonist call [2]: inactive | odorant receptor agonist call [3]: inactive | odorant receptor agonist call [4]: inactive | odorant receptor agonist call [8]: inactive | odorant receptor agonist call [5]: inactive | odorant receptor agonist call [6]: active | odorant receptor agonist call [7]: inactive
